# Literature values in patent US8236818B2, “Substituted imidazopyridine derivatives as melanocortin-4 receptor antagonists” (Santhera Pharmaceuticals (Schweiz) AG, priority 2007, dated 2012).
# Conditions: control compounds of the Caco-2 assay; Zhao et al. 2001; cited from earlier work
compound,measurement,value
CC(C)NCC(O)COc1ccc(CC(N)=O)cc1 (stereo not shown) [atenolol],human absorption,approximately 50%
